Results from patent US20120122179.

By UniProt entry, the sequences of proteins in these tests, tags left out. Residues count along the entry.
UniProt P00740, 47-461: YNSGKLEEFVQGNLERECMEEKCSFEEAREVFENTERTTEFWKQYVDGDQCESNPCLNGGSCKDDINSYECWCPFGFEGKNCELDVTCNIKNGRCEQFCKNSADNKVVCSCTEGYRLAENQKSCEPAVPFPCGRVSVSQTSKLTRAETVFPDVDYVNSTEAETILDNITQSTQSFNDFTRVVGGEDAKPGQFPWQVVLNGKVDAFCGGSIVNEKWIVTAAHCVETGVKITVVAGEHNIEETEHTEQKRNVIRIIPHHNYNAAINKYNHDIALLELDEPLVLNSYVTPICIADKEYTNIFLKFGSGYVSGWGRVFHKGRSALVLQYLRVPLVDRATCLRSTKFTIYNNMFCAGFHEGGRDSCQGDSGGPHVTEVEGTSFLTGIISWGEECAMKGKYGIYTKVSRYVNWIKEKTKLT
UniProt P98139, 40-444: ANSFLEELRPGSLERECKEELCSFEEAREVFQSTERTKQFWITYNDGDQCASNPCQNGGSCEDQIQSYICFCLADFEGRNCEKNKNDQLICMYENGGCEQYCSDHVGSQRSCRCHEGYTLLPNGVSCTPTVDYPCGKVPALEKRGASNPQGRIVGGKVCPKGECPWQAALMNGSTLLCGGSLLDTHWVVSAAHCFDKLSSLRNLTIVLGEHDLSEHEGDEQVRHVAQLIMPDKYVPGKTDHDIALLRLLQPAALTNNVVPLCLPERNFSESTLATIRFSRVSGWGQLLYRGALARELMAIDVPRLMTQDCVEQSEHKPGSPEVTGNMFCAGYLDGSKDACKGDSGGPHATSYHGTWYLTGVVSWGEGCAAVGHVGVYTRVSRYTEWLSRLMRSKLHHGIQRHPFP

What was measured:
Assay in all cases: pull-down
[1] = molecular target: coagulation factor IX, recombinant (Homo sapiens) (UniProt P00740); settings: directly chemically coupled to gel, no spacer; affinity chromatography; 50 mM Tris, 10 mM CaCl2, pH 7.5; EDTA elution; >26-fold purity gain; protein in an extract; single-stranded DNA
[2] = molecular target: coagulation factor IX, plasma-derived (Homo sapiens) (UniProt P00740); settings: directly chemically coupled to gel, no spacer; affinity chromatography; 50 mM Tris, 10 mM CaCl2, pH 7.5; EDTA eluate 100% FIX vs 51% start; purified native protein; protein details: Betafact (LFB), about 51-60% purity; single-stranded DNA
[3] = molecular target: coagulation factor VII, rabbit plasma (Oryctolagus cuniculus) (UniProt P98139); settings: 5' biotin; via PEG(C18)x4 spacer in SPR; affinity chromatography; 50 mM Tris, 10 mM CaCl2, 0.05 mM Mg salt, pH 7.5; 0.2% of FVII in EDTA eluate; protein in an extract; protein details: hydroxyapatite eluate enriched in rabbit FVII; single-stranded DNA
[4] = molecular target: T1, coagulation factor VII, plasma-derived (Homo sapiens) (UniProt P08709); settings: 5' biotin, no spacer; affinity chromatography; 50 mM Tris, 10 mM CaCl2, 0.05 mM MgCl2, pH 7.5; eluted by 10 mM EDTA; purified native protein; protein details: plasma FVII purified to 98%; single-stranded DNA; variant of Mapt-2 (Mapt2)
T1 sequence (looked up, limits assumed): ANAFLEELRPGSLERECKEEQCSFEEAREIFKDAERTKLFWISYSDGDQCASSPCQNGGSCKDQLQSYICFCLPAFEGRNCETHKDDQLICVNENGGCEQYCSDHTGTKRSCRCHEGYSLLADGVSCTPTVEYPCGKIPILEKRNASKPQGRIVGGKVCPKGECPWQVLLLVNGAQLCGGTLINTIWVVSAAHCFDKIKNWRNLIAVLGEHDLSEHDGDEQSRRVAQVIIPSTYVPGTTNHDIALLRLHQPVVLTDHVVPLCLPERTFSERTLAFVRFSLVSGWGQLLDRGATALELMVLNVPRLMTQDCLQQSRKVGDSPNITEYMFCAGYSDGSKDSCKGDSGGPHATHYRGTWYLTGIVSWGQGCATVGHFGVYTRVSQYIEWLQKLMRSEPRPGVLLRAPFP

“GGGAGATAGCCACGACCTCGCACATGACTTGAAGTTAAACGCGAATTACAAACCCAGCCCCCTCCAGGCTGTGCGAAAGC [Mapt-1]”: binds [1]; binds [2].

“GGGAGATAGCCACGACCTATGCAGCCAGCCGCAGTGTAAGTGAATGCAGACATGGTCTAAGTGTCCAGGCTGTGCGAAAGC [Mapt-2 (Mapt2)]”: no binding [3].

“CCGCACACCACGCGCATAATCCCGCGCACACGACTTGAAGTAGC [Mapt-2 core]”: binds [4].

Construct, isoform or probe ends are uncertain for at least one entry. For some of these results: Results from cells or extracts need not show a direct contact. For some of these results: Negatives hold for the conditions tested. For some of these results: Tags and fusion partners may be left off the protein sequences shown.
